# Values quoted from earlier work in US8110719B2, “ABI1 conditional knockout mouse” (New York Blood Center, Inc., priority 2008, dated 2012).
# At least one structure is not confirmed: it was looked up by name or label, or the drawing left a doubt.
# System: PI-3 kinase
# Conditions: previous studies; also affects macropinosome morphology
compound,measurement,value
O=c1cc(N2CCOCC2)oc2c(-c3ccccc3)cccc12 [LY294002],endocytosis of fluorescent dyes into Hssh3bp1 macropinosomes,blocks endocytosis of fluorescent dyes into Hssh3bp1 macropinosomes
